Measurements published in US20090036547A1 (priority 2005, published 2009).
Some entries share one result that the patent states for a list of compounds.

Tested on: range of mosquito species (larvae)
Test: WHO standard larval bioassay, summary over all strains
Format: in vivo, Anopheles, Aedes, Culex
Details: Example 2, at a 10% concentration

SMILES	approximate dose range of biocidal activity
Cc1ccc(C(C)C)cc1 [p-Cymene, p-cymene]	0.1 to 0.3 mL
Cc1ccc(C(C)C)c(O)c1 [Thymol]	0.1 to 0.3 mL
